Laboratory results: PubChem BioAssay AID1347426 (Functional Genomics Laboratory (NCATS/FGL), 2020)
The campaign covered roughly 31,000 sequences. About 1,400 (4.5%) were called active.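 The calls were made as follows: active = median seed-adjusted z-score above 1 or below -1; inactive = the rest.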 The list shows a part of the results.

Test: Novel Modifiers of Survival Motor Neuron (SMN) Protein: Gene Identification via Genome-wide siRNA Screen;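 also: luminescence tracks full-length SMN protein made from the SMN2 reporter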
Settings: HEK293T SMN2-luciferase reporter, siRNA knockdown, 72 h; actives lie on both sides
In short: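 Genome-wide siRNA screen (10418 genes, 3 siRNAs each, 1 pmol per well) by reverse transfection in HEK293T cells stably carrying an SMN2-luciferase reporter; luminescence after 72 hours, normalized to negative-control siRNA, log10-transformed, MAD-scored.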

Row | Sequence | median seed-adjusted z-score
1 | CAGGUACCGUCAUCACAUUTT against PCDHA7 | inactive: 0.552
2 | GGAUUACCACCAUGACAAUTT against PAK7 | inactive: -0.202
3 | CGGCUGUGGUGAACCAGUATT against INHBB | inactive: -0.522
4 | GGGAUGUCGUCCAAGCAUATT against KCNK17 | inactive: -0.579
5 | CGACCACAUUGUCCGAUUUTT against AMHR2 | inactive: 0.557
6 | GAAAGUUCGAAUCAAUUUATT against TOX4 | inactive: 0
7 | AAUUCUCCAUUGAAAUUGATT against PITPNM1 | inactive: -0.203
8 | GAGGGACCGUGAAUGUCAATT against ADCY9 | inactive: 0.269
9 | GACUACGUUUGUUCGUAUATT against DSC1 | inactive: -0.151
10 | CGGAGAGCGAAGACGUGAATT against SLC18A3 | inactive: -0.392
11 | CAUCCUGCAGAGUAUCUAATT against EPHA5 | inactive: -0.00876
12 | AUUUGAAGCCUGUACAAAATT against GNG5 | inactive: -0.215
13 | CCAAGUUGAUGCUCUUAAATT against CCNE2 | inactive: 0.801
14 | AGAUCAUUGCUUUCAGUGATT against PRDX1 | inactive: 0.288
15 | GCGCAGAGUCUUUUACGAATT against RPS6KA3 | inactive: -0.0233
16 | GCCUCUGAAUGAGAUUGUATT against ATP13A2 | inactive: 0.461
17 | CUAUGGAGAUUCAACUGCATT against LAMC1 | inactive: 0.0473
18 | GCCUACAAUUCACAAUAGATT against CD180 | inactive: 0
19 | CUGAUUCUCGCAAUAAAUATT against CLCN4 | inactive: 0
20 | CAAUCAAAUUUCUAACUUUTT against MEX3D | inactive: -0.337
21 | ACCGCUACGUGAUUCUGGATT against DCAKD | inactive: 0.0872
22 | GCCCAGAAUUCAAUCCGAATT against ABCB7 | inactive: -0.0991

Row | Sequence | median seed-adjusted z-score
23 | CAGUGCUCAUGGAACUCUUTT against HMGCS2 | inactive: -0.465
24 | UGUCAAGCCUGAAAACCUATT against MAPKAPK3 | inactive: -0.506
25 | GAGCUAACAUAUAUCAUCATT against STX5 | inactive: 0.108
26 | GGAAGAUCAUCACUAGUGATT against ACSS1 | inactive: 0.243
27 | CAGUGAACGAGCAAAUAAATT against ATRIP | inactive: 0.353
28 | GCAGGAGAAAGACCGAGAATT against POLR3D | inactive: -0.434
29 | GUUUCACCAUCGUUCGUGATT against PROKR2 | inactive: 0.328
30 | CCUCCUACCUGAAGUUUCATT against ST8SIA4 | inactive: -0.309
31 | GCAUGGACUUCGAUGAGUUTT against ULK1 | inactive: -0.214
32 | GCAUGACCCGAGUCAUUGATT against RPN1 | inactive: -0.375
33 | GUUUUGACGGAGCAACAAATT against POGK | inactive: 0.938
34 | GCUAAUAUGCAGUCCCAUATT against MCART6 | inactive: 0.714
35 | CCACAUCGAAGGAACAGGATT against MYBL2 | inactive: 0.592
36 | AGAGAGCUCCGAACCUUCUTT against ICAM5 | active: -1
37 | CUGCUUAACCGAUUCAAUUTT against NSUN3 | inactive: 0.302
38 | GCAUGAGGGAGGACGUGUATT against THOP1 | inactive: 0.643
39 | GUCUUUAGCUGACCUGAAUTT against DMD | inactive: -0.626
40 | UCAUAUCUGCUAAAGCGAATT against PIF1 | inactive: -0.0455
41 | GCAGCUCCAUUACUUCAAATT against MCFD2 | inactive: -0.0111
42 | CCCGAACACUGUUUCAGUUTT against ABTB2 | inactive: 0.432
43 | GCUCUAUCAAAGAAAGCAATT against PDHX | inactive: 0.21
44 | GCAACUCUGUCUAGAACAATT against TSGA14 | inactive: 0.433

Some values from the list:
median seed-adjusted z-score with GUCUUUAGCUGACCUGAAUTT against DMD reads inactive: -0.626
median seed-adjusted z-score with AGAGAGCUCCGAACCUUCUTT against ICAM5 reads active: -1
median seed-adjusted z-score with CAGUGAACGAGCAAAUAAATT against ATRIP reads inactive: 0.353
median seed-adjusted z-score with GCUAAUAUGCAGUCCCAUATT against MCART6 reads inactive: 0.714
median seed-adjusted z-score with GCAUGACCCGAGUCAUUGATT against RPN1 reads inactive: -0.375
median seed-adjusted z-score with GCAUGGACUUCGAUGAGUUTT against ULK1 reads inactive: -0.214
median seed-adjusted z-score with UCAUAUCUGCUAAAGCGAATT against PIF1 reads inactive: -0.0455

Going on with the list:

Row | Sequence | median seed-adjusted z-score
45 | CACUUAAGAGCUUCGAAAATT against FKBP5 | inactive: -0.598
46 | GCAUUGAAACGAAUGGGAATT against UBA5 | inactive: -0.105
47 | GCAGCAUGCUACAACCAAATT against RNF25 | inactive: -0.0826
48 | GGAAUUCCUUUAAUGACGATT against RYR3 | inactive: 0
49 | GCACGGCUGAAGACUCUAATT against GNRHR | inactive: 0.0978
50 | CAACUUAGUUUGGAUGUAATT against CHST10 | inactive: 0.115
51 | GAAUUGUUGAAACCCAUUUTT against GNAI1 | inactive: -0.233
52 | GGAUUCAUUCUGUUACUUATT against GSTT2 | inactive: 0.0298
53 | CCUCAGAUGUGAUGUGGAATT against ACSM3 | inactive: 0.281
54 | GCAUUGUUAUGAGCCUUGATT against RDH8 | inactive: -0.657
55 | GCAUCAUCCAGAGACUGCATT against CCL19 | inactive: 0.0364
56 | CAUUGUCAAUAUAACGAUUTT against GPR98 | inactive: -0.509
57 | GGAAGUCUGUUUCACGAUATT against SND1 | inactive: -0.0434
58 | UGAAACUGUUAGUAGCAAATT against USP46 | inactive: -0.964
59 | GGAUCCGAGAGUCACCCAATT against LLGL1 | active: -1.13
60 | GGAUAUUUCCCAGAGGAAATT against ZNF69 | inactive: 0
61 | CUAUGGUAGCGACACUGCATT against LILRB1 | inactive: 0.539
62 | CGAUUUUGUCACAACAACATT against EIF5 | inactive: 0.362
63 | CUCCUGAGAUAAUAAUGAATT against RFC3 | inactive: 0.733
64 | GCAGAAGGCUGCUUACUAUTT against HOXD3 | inactive: 0.233
65 | AGAAGAGUUUUCUAGCGAATT against POU2F2 | inactive: 0.163
66 | CAGCUCAAGUCUUCCCUGATT against LTA | inactive: 0.273

Row | Sequence | median seed-adjusted z-score
67 | GGAGGAGAAUCCAUCUAUUTT against GJC1 | inactive: -0.0291
68 | GAAUGAUUGAGUUUCGUGATT against PURG | inactive: 0.448
69 | UGACGUAAUUCACUCGUUUTT against RNASET2 | inactive: -0.126
70 | CAAUGAUCCCGGGCAUUUATT against RPP21 | active: -1.09
71 | GAGGAAUUCUUCGACCUCATT against GPSM1 | inactive: -0.275
72 | GAAGAAACCUUGAACGACATT against DHRSX | inactive: -0.686
73 | GGGCUACCUGUGCUACUCATT against KRTAP23-1 | inactive: 0.647
74 | GACGAAUUCUUCACCAUGATT against DUOX2 | inactive: 0.525
75 | GCAAGGUAGUCGAUAGUGATT against CDH13 | inactive: 0
76 | CUGUGAGAGUGAUCGGGAATT against HUWE1 | inactive: 0.734
77 | AAAUGCAAGAGUUUGGUUATT against RBP7 | inactive: 0.0709
78 | CCAAGAUGCUCAGUCAUCATT against MAP4K1 | inactive: 0
79 | GGAGGAUUCUAACAUGGAUTT against RASAL1 | inactive: -0.089
80 | GGAAGUCCACCUUUCUCAATT against PNKP | inactive: -0.0563
81 | AAGACGUGUUUAUCAUUAATT against LMX1A | inactive: 0.15
82 | GAGUCUAAACUAUCCUGAATT against OVCH2 | inactive: 0.439
83 | CGAGGGCUAUGGAAGGAAATT against MAP3K3 | inactive: -0.182
84 | AGUCCAACAUCUGCCUUUATT against ITGAX | inactive: -0.0677
85 | GAGUGAAACUGUACGGAAUTT against PCDHGA9 | inactive: -0.125
86 | GGGACUAGCUCUUCGCAUATT against PTGER3 | inactive: -0.321
87 | GGAUCUGUAUCAAGCCGUUTT against APC | inactive: 0.154
88 | AGGAGUUCUUGGUCAUGAUTT against TNNC2 | inactive: -0.773

Row | Sequence | median seed-adjusted z-score
89 | AGACCAUCGAGACACGGGATT against DES | inactive: 0
90 | AAGCCUCCAUUGAAAGAAUTT against GNG12 | inactive: 0.331
91 | GGAAAAAGUCUAUAAUCUUTT against POLR3E | inactive: -0.55
92 | GGUAUUUCCAGGCCCACAATT against SHROOM1 | inactive: 0.0461
93 | UCAUUAGUGUCGACCCUAATT against SMARCD2 | inactive: 0.162
94 | AGAACAAAGACCUAAUGGATT against TNNT3 | inactive: -0.293
95 | AGAUGAUUCUAGAAUCCAATT against STK32B | inactive: 0.683
96 | GCUAGAUCACUGUAACAUATT against GSK3B | inactive: -0.952
97 | GGGUGUAAAAUGCACGUUUTT against CLDN16 | inactive: -0.868
98 | CCAGCUCCUUUAUCAAGCATT against RAD51 | inactive: 0.594
99 | AGCUGAUUUCGGAACACUATT against GFOD2 | inactive: -0.0447
100 | CCACUUUGAAGGACACUAUTT against DUSP4 | inactive: -0.176
101 | CGAAGGGUUUGAAUACCGATT against HIRA | inactive: 0.286
102 | GUAUGAUGAUAGUCGAAUATT against MAP3K2 | inactive: 0
103 | GAUCCACCCAAAUAUCAAATT against KLF1 | inactive: 0
104 | GGCAAUGUAUCCACACAUATT against APOBEC3F | inactive: -0.315
105 | ACUCAGACCUUUAUCCUGATT against CA12 | inactive: -0.0119
106 | CAUACGGACUGUACCUUUATT against PSMC5 | active: -1.06
107 | GCAUCCAAAUGCUGAUGGGTT against CSHL1 | inactive: -0.54
108 | GAUGAUGGAUUUAACUAUATT against CALU | inactive: 0.123
